Measurements: patent publication US20160108117A1 (UNIVERSITE DE NICE SOPHIA ANTIPOLIS, published 2016)
Results are given in words; binding and its absence hold for the method and conditions named. Some binding calls cover weakened binding; strength is not graded here.

B1: monoclonal rat IgG antibody produced by the hybridoma 12A10-13 (CNCM I-4617) (antibody, V domains shown)
VH: QVQLQQSGAELAKPGSSVKISCKASGYTFTSYYISWIKQTTGQGLEYIGYINTGSGGTNYNEKFKGKATLTVDKSSSTAFMQLSSLTPDDSAVYYCASPSGGFDYWGQGVMVTVSS
VL: EIVLTQSPTTMAASPGEKVTITCRASSSVSYMHWYQQKPGASPKPWIYDTSKLASGVPNRFSGSGSGTSYSLTISSMETEDTATYYCQQWSSNSLTFGSGTKLEIK
notes: also called Mc12A10-13
B2: monoclonal rat IgG antibody produced by the hybridoma 35B11-8 (CNCM I-4618) (antibody, V domains shown)
VH: EVQLVESGGGLVQPGRSLKLSCVASGFTFNNYWMTWIRQAPGKGLEWVASISKTGSNPYYPDSVKGRFTISRDNAKNTLYLQMNSLRSEDTATYYCARDGTTPLDYWGQGVMVTVSS
VL: DIQMTQSPPSLSASLGDKVTITCQASQNINKYIAWYQQKPGKAPGLLIHYTSTLVSGIPSRFSGSGSGRVYSFSISNVESEDIASYYCLQYDNSPFPFGAGTKLELK
notes: also called Mc35B11-8

Target: T1, human chemokine CXCL8 (human, UniProt P10145 28-99, limits assumed)
T1 construct: also called IL8; IL-8
T1 sequence (looked up): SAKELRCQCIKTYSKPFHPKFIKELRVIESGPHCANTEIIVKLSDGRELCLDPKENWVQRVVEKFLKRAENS
Assay: SPR (Biacore 3000), antibody captured, cytokine as analyte, 25 C

Binder	binding
B1	binds
B2	binds
